In experiment [1] the target is myc-βTrCP1 (FBXW1A) (UniProt Q9Y297). Nature of the experiment: co-IP; lysates of HEK 293T cells co-expressing FLAG-STIL versions and myc-βTrCP for 36 h; IP with 9E10 anti-myc antibodies cross-linked to protein A beads, 2 h at 4°C; washes 50 mM Tris-HCl pH 7.4, 150-300 mM NaCl, 0.5-1% IgePal; western blot for FLAG and myc. On the technique in general: In western blotting, separated proteins are transferred to a membrane and probed.

By UniProt entry, the sequences of proteins in these tests, tags left out.
UniProt Q9Y297: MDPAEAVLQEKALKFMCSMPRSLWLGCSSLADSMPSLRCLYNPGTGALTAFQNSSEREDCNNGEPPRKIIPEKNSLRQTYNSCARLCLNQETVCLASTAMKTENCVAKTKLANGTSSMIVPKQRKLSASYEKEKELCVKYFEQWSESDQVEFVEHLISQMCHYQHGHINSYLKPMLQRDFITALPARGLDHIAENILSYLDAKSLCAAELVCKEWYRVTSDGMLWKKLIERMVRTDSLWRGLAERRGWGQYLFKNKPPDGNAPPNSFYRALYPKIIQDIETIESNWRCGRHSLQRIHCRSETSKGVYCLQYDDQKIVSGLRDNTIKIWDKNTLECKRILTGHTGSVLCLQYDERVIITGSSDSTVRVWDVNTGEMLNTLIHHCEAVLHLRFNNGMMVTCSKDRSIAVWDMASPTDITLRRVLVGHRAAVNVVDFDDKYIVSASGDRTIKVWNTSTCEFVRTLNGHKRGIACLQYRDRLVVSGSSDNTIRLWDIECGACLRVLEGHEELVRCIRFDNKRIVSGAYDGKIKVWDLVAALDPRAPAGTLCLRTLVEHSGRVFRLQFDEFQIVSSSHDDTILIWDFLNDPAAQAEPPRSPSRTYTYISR

Experiment [2] shares this target. Nature of the experiment: co-IP; S395D mutant; no figure is cited and no method is told, so the method is taken from the co-IP described in the same sentence.

These are yes or no findings as the source states them, for the method shown. Binding seen in cells or lysates may run through a third protein. Some binding calls cover weakened binding; strength is not graded here. For part of these data: Sequences can lack the tags named with a protein.

B1: FLAG-STIL WT (full-length human STIL, residues 1-1287) (protein, UniProt Q15468 1-1287)
chain: MEPIYPFARPQMNTRFPSSRMVPFHFPPSKCALWNPTPTGDFIYLHLSYYRNPKLVVTEKTIRLAYRHAKQNKKNSSCFLLGSLTADEDEEGVTLTVDRFDPGREVPECLEITPTASLPGDFLIPCKVHTQELCSREMIVHSVDDFSSALKALQCHICSKDSLDCGKLLSLRVHITSRESLDSVEFDLHWAAVTLANNFKCTPVKPIPIIPTALARNLSSNLNISQVQGTYKYGYLTMDETRKLLLLLESDPKVYSLPLVGIWLSGITHIYSPQVWACCLRYIFNSSVQERVFSESGNFIIVLYSMTHKEPEFYECFPCDGKIPDFRFQLLTSKETLHLFKNVEPPDKNPIRCELSAESQNAETEFFSKASKNFSIKRSSQKLSSGKMPIHDHDSGVEDEDFSPRPIPSPHPVSQKISKIQPSVPELSLVLDGNFIESNPLPTPLEMVNNENPPLINHLEHLKPLQPQLYDEKHSPEVEAGEPSLRGIPNQLNQDKPALLRHCKVRQPPAYKKGNPHTRNSIKPSSHNGPSHDIFEKLQTVSAGNVQNEEYPIRPSTLNSRQSSLAPQSQPHDFVFSPHNSGRPMELQIPTPPLPSYCSTNVCRCCQHHSHIQYSPLNSWQGANTVGSIQDVQSEALQKHSLFHPSGCPALYCNAFCSSSSPIALRPQGDMGSCSPHSNIEPSPVARPPSHMDLCNPQPCTVCMHTPKTESDNGMMGLSPDAYRFLTEQDRQLRLLQAQIQRLLEAQSLMPCSPKTTAVEDTVQAGRQMELVSVEAQSSPGLHMRKGVSIAVSTGASLFWNAAGEDQEPDSQMKQDDTKISSEDMNFSVDINNEVTSLPGSASSLKAVDIPSFEESNIAVEEEFNQPLSVSNSSLVVRKEPDVPVFFPSGQLAESVSMCLQTGPTGGASNNSETSEEPKIEHVMQPLLHQPSDNQKIYQDLLGQVNHLLNSSSKETEQPSTKAVIISHECTRTQNVYHTKKKTHHSRLVDKDCVLNATLKQLRSLGVKIDSPTKVKKNAHNVDHASVLACISPEAVISGLNCMSFANVGMSGLSPNGVDLSMEANAIALKYLNENQLSQLSVTRSNQNNCDPFSLLHINTDRSTVGLSLISPNNMSFATKKYMKRYGLLQSSDNSEDEEEPPDNADSKSEYLLNQNLRSIPEQLGGQKEPSKNDHEIINCSNCESVGTNADTPVLRNITNEVLQTKAKQQLTEKPAFLVKNLKPSPAVNLRTGKAEFTQHPEKENEGDITIFPESLQPSETLKQMNSMNSVGTFLDVKRLRQLPKLF
With B1, the binding result in experiment [1] is reported as “binds”.

B2: STIL with S395 replaced by aspartate (phospho-mimetic mutant) (protein, UniProt Q15468 1-1287)
chain: MEPIYPFARPQMNTRFPSSRMVPFHFPPSKCALWNPTPTGDFIYLHLSYYRNPKLVVTEKTIRLAYRHAKQNKKNSSCFLLGSLTADEDEEGVTLTVDRFDPGREVPECLEITPTASLPGDFLIPCKVHTQELCSREMIVHSVDDFSSALKALQCHICSKDSLDCGKLLSLRVHITSRESLDSVEFDLHWAAVTLANNFKCTPVKPIPIIPTALARNLSSNLNISQVQGTYKYGYLTMDETRKLLLLLESDPKVYSLPLVGIWLSGITHIYSPQVWACCLRYIFNSSVQERVFSESGNFIIVLYSMTHKEPEFYECFPCDGKIPDFRFQLLTSKETLHLFKNVEPPDKNPIRCELSAESQNAETEFFSKASKNFSIKRSSQKLSSGKMPIHDHDDGVEDEDFSPRPIPSPHPVSQKISKIQPSVPELSLVLDGNFIESNPLPTPLEMVNNENPPLINHLEHLKPLQPQLYDEKHSPEVEAGEPSLRGIPNQLNQDKPALLRHCKVRQPPAYKKGNPHTRNSIKPSSHNGPSHDIFEKLQTVSAGNVQNEEYPIRPSTLNSRQSSLAPQSQPHDFVFSPHNSGRPMELQIPTPPLPSYCSTNVCRCCQHHSHIQYSPLNSWQGANTVGSIQDVQSEALQKHSLFHPSGCPALYCNAFCSSSSPIALRPQGDMGSCSPHSNIEPSPVARPPSHMDLCNPQPCTVCMHTPKTESDNGMMGLSPDAYRFLTEQDRQLRLLQAQIQRLLEAQSLMPCSPKTTAVEDTVQAGRQMELVSVEAQSSPGLHMRKGVSIAVSTGASLFWNAAGEDQEPDSQMKQDDTKISSEDMNFSVDINNEVTSLPGSASSLKAVDIPSFEESNIAVEEEFNQPLSVSNSSLVVRKEPDVPVFFPSGQLAESVSMCLQTGPTGGASNNSETSEEPKIEHVMQPLLHQPSDNQKIYQDLLGQVNHLLNSSSKETEQPSTKAVIISHECTRTQNVYHTKKKTHHSRLVDKDCVLNATLKQLRSLGVKIDSPTKVKKNAHNVDHASVLACISPEAVISGLNCMSFANVGMSGLSPNGVDLSMEANAIALKYLNENQLSQLSVTRSNQNNCDPFSLLHINTDRSTVGLSLISPNNMSFATKKYMKRYGLLQSSDNSEDEEEPPDNADSKSEYLLNQNLRSIPEQLGGQKEPSKNDHEIINCSNCESVGTNADTPVLRNITNEVLQTKAKQQLTEKPAFLVKNLKPSPAVNLRTGKAEFTQHPEKENEGDITIFPESLQPSETLKQMNSMNSVGTFLDVKRLRQLPKLF
For the molecule B2, the binding result in experiment [2] is “no binding”.

B3: FLAG-STIL DAG (S395A) (protein, UniProt Q15468 1-1287)
chain: MEPIYPFARPQMNTRFPSSRMVPFHFPPSKCALWNPTPTGDFIYLHLSYYRNPKLVVTEKTIRLAYRHAKQNKKNSSCFLLGSLTADEDEEGVTLTVDRFDPGREVPECLEITPTASLPGDFLIPCKVHTQELCSREMIVHSVDDFSSALKALQCHICSKDSLDCGKLLSLRVHITSRESLDSVEFDLHWAAVTLANNFKCTPVKPIPIIPTALARNLSSNLNISQVQGTYKYGYLTMDETRKLLLLLESDPKVYSLPLVGIWLSGITHIYSPQVWACCLRYIFNSSVQERVFSESGNFIIVLYSMTHKEPEFYECFPCDGKIPDFRFQLLTSKETLHLFKNVEPPDKNPIRCELSAESQNAETEFFSKASKNFSIKRSSQKLSSGKMPIHDHDAGVEDEDFSPRPIPSPHPVSQKISKIQPSVPELSLVLDGNFIESNPLPTPLEMVNNENPPLINHLEHLKPLQPQLYDEKHSPEVEAGEPSLRGIPNQLNQDKPALLRHCKVRQPPAYKKGNPHTRNSIKPSSHNGPSHDIFEKLQTVSAGNVQNEEYPIRPSTLNSRQSSLAPQSQPHDFVFSPHNSGRPMELQIPTPPLPSYCSTNVCRCCQHHSHIQYSPLNSWQGANTVGSIQDVQSEALQKHSLFHPSGCPALYCNAFCSSSSPIALRPQGDMGSCSPHSNIEPSPVARPPSHMDLCNPQPCTVCMHTPKTESDNGMMGLSPDAYRFLTEQDRQLRLLQAQIQRLLEAQSLMPCSPKTTAVEDTVQAGRQMELVSVEAQSSPGLHMRKGVSIAVSTGASLFWNAAGEDQEPDSQMKQDDTKISSEDMNFSVDINNEVTSLPGSASSLKAVDIPSFEESNIAVEEEFNQPLSVSNSSLVVRKEPDVPVFFPSGQLAESVSMCLQTGPTGGASNNSETSEEPKIEHVMQPLLHQPSDNQKIYQDLLGQVNHLLNSSSKETEQPSTKAVIISHECTRTQNVYHTKKKTHHSRLVDKDCVLNATLKQLRSLGVKIDSPTKVKKNAHNVDHASVLACISPEAVISGLNCMSFANVGMSGLSPNGVDLSMEANAIALKYLNENQLSQLSVTRSNQNNCDPFSLLHINTDRSTVGLSLISPNNMSFATKKYMKRYGLLQSSDNSEDEEEPPDNADSKSEYLLNQNLRSIPEQLGGQKEPSKNDHEIINCSNCESVGTNADTPVLRNITNEVLQTKAKQQLTEKPAFLVKNLKPSPAVNLRTGKAEFTQHPEKENEGDITIFPESLQPSETLKQMNSMNSVGTFLDVKRLRQLPKLF
On to B3, for which the binding result in experiment [1] is “no binding”.

(Values after publication PMC5830536.)
